Reference: paper doi:10.1101/2021.06.17.448790
Results are given in words; binding and its absence hold for the method and conditions named. In cells and extracts the contact can be indirect. Some entries that bind do so weakly or less than the wild type. Tags and fused reporters may be left off the sequences shown.

Target: EphA1-P460L (Alzheimer's disease-associated P460L variant of EphA1), Myc-Flag-tagged (human) (UniProt P21709)
Experiment: cross-linking

B1: EphA1-P460L (Alzheimer's disease-associated P460L variant of EphA1), Myc-Flag-tagged (receptor, UniProt P21709 26-976)
chain: KEVTLMDTSKAQGELGWLLDPPKDGWSEQQQILNGTPLYMYQDCPMQGRRDTDHWLRSNWIYRGEEASRVHVELQFTVRDCKSFPGGAGPLGCKETFNLLYMESDQDVGIQLRRPLFQKVTTVAADQSFTIRDLVSGSVKLNVERCSLGRLTRRGLYLAFHNPGACVALVSVRVFYQRCPETLNGLAQFPDTLPGPAGLVEVAGTCLPHARASPRPSGAPRMHCSPDGEWLVPVGRCHCEPGYEEGGSGEACVACPSGSYRMDMDTPHCLTCPQQSTAESEGATICTCESGHYRAPGEGPQVACTGPPSAPRNLSFSASGTQLSLRWEPPADTGGRQDVRYSVRCSQCQGTAQDGGPCQPCGVGVHFSPGARGLTTPAVHVNGLEPYANYTFNVEAQNGVSGLGSSGHASTSVSISMGHAESLSGLSLRLVKKELRQLELTWAGSRPRSPGANLTYELHVLNQDEERYQMVLEPRVLLTELQPDTTYIVRVRMLTPLGPGPFSPDHEFRTSPPVSRGLTGGEIVAVIFGLLLGAALLLGILVFRSRRAQRQRQQRQRDRATDVDREDKLWLKPYVDLQAYEDPAQGALDFTRELDPAWLMVDTVIGEGEFGEVYRGTLRLPSQDCKTVAIKTLKDTSPGGQWWNFLREATIMGQFSHPHILHLEGVVTKRKPIMIITEFMENGALDAFLREREDQLVPGQLVAMLQGIASGMNYLSNHNYVHRDLAARNILVNQNLCCKVSDFGLTRLLDDFDGTYETQGGKIPIRWTAPEAIAHRIFTTASDVWSFGIVMWEVLSFGDKPYGEMSNQEVMKSIEDGYRLPPPVDCPAPLYELMKNCWAYDRARRPHFQKLQAHLEQLLANPHSLRTIANFDPRMTLRLPSLSGSDGIPYRTVSEWLESIRMKRYILHFHSAGLDTMECVLELTAEDLTQMGITLPGHQKRILCSIQGFKD
- binding: binds
